From the supplement of paper PMC5393889
This is one part of the list.

Each molecule was assayed on Caenorhabditis elegans N2 (assay: aldicarb interaction hit call (worm growth perturbed in combination with 10 uM aldicarb in both replicates, no effect as single agent) (binary (1 = interacts)); higher = interacts with aldicarb (growth perturbed)). Conditions: first compound 1.5 µM; aldicarb concentration 10 µM; 6 days; 20 °C.
Experimental: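 C. elegans liquid growth assay in 96-well plates: about 40 synchronized L1 worms in NGM with HB101 E. coli, 6 days at 20 C, 0.6% DMSO. Each wactive compound was tested at 1.5 uM plus 10 uM aldicarb, and alone in DMSO controls. Viable worms were scored under a dissection microscope in two replicates. A hit is a compound that perturbed growth with aldicarb in both replicates but had no obvious effect as a single agent. Only compounds that overgrew as single agents are kept.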

Row | SMILES | aldicarb interaction hit call
1 | O=C1OCCC1Sc1nc(-c2ccc(Cl)cc2Cl)cs1 (stereo not given) [wact-551] + CNC(=O)O/N=C/C(C)(C)SC [aldicarb] | inactive: 0
2 | Fc1ccc(-c2ccc(CNC3CC3)o2)cc1Cl [wact-182] + CNC(=O)O/N=C/C(C)(C)SC [aldicarb] | inactive: 0
3 | CCCCC(=O)N1CCN(c2cc(C)c([N+](=O)[O-])cc2F)CC1 [wact-519] + CNC(=O)O/N=C/C(C)(C)SC [aldicarb] | inactive: 0
4 | CC(C)C(=O)N1CCN(c2ccc(NC(=O)c3ccc(Br)o3)cc2Cl)CC1 [wact-539] + CNC(=O)O/N=C/C(C)(C)SC [aldicarb] | inactive: 0
5 | OC(COc1ccc(CNCc2ccc(C(F)(F)F)cc2)cc1)CN1CCCCC1 (stereo not given) [wact-284] + CNC(=O)O/N=C/C(C)(C)SC [aldicarb] | inactive: 0
6 | O=C(Nc1ccc(Oc2ccc(Br)cc2)cc1)c1ccccc1[N+](=O)[O-] [wact-66] + CNC(=O)O/N=C/C(C)(C)SC [aldicarb] | inactive: 0
7 | O=C(NCCCNc1ccc(C(F)(F)F)cc1[N+](=O)[O-])c1ccc(F)cc1 [wact-117] + CNC(=O)O/N=C/C(C)(C)SC [aldicarb] | inactive: 0
8 | O=C(CCCc1ccccc1)N1CCN(c2ccc(Cl)cc2)CC1 [wact-124] + CNC(=O)O/N=C/C(C)(C)SC [aldicarb] | inactive: 0
9 | Cc1nc(CNC2CCCc3c2cnn3-c2ccc(C(C)(C)C)cc2)c[nH]1 (stereo not given) [wact-300] + CNC(=O)O/N=C/C(C)(C)SC [aldicarb] | inactive: 0
10 | Clc1ccc(-c2noc(CN3CCC(Oc4cccnc4)CC3)n2)cc1 [wact-258] + CNC(=O)O/N=C/C(C)(C)SC [aldicarb] | inactive: 0
11 | O=[N+]([O-])c1ccc(CSc2ccc(Cl)cc2)cc1 [wact-3] + CNC(=O)O/N=C/C(C)(C)SC [aldicarb] | inactive: 0
12 | COc1ccccc1C(=O)Nc1ccc(N2CCN(C(=O)c3ccc(C)cc3)CC2)cc1 [wact-545] + CNC(=O)O/N=C/C(C)(C)SC [aldicarb] | inactive: 0
13 | O=C(Nc1ccc(F)cc1F)N1CCN(c2ccc([N+](=O)[O-])cc2)CC1 [wact-544] + CNC(=O)O/N=C/C(C)(C)SC [aldicarb] | inactive: 0
14 | O=C(CC1c2ccccc2Oc2ccccc21)N1CCN(c2ccccn2)CC1 [wact-595] + CNC(=O)O/N=C/C(C)(C)SC [aldicarb] | inactive: 0
15 | Cc1cc(C(=O)Nc2ccc(N3CCOCC3)c(Cl)c2)ccc1[N+](=O)[O-] [wact-480] + CNC(=O)O/N=C/C(C)(C)SC [aldicarb] | inactive: 0
16 | O=C(Nc1ccc2[nH]c(-c3cccs3)nc2c1)c1cccs1 [wact-534] + CNC(=O)O/N=C/C(C)(C)SC [aldicarb] | inactive: 0
17 | O=[N+]([O-])c1ccc(N2CCN(CC3CC4C=CC3C4)CC2)cc1 (stereo not given) [wact-46] + CNC(=O)O/N=C/C(C)(C)SC [aldicarb] | inactive: 0
18 | C#CCNS(=O)(=O)c1cccc(C(=O)Nc2nc(-c3ccc(F)c(F)c3)c(C)s2)c1 [wact-346] + CNC(=O)O/N=C/C(C)(C)SC [aldicarb] | inactive: 0
19 | Cc1ccc(-c2nc(-c3ccc(Cl)cc3)no2)cc1 [wact-445] + CNC(=O)O/N=C/C(C)(C)SC [aldicarb] | active: 1
20 | C(#Cc1ccc(/C=N/c2nccs2)cc1)c1ccccc1 [wact-376] + CNC(=O)O/N=C/C(C)(C)SC [aldicarb] | inactive: 0

Look-ups from the list:
aldicarb interaction hit call, Cc1cc(C(=O)Nc2ccc(N3CCOCC3)c(Cl)c2)ccc1[N+](=O)[O-] [wact-480] + CNC(=O)O/N=C/C(C)(C)SC [aldicarb] reads inactive: 0
aldicarb interaction hit call, C(#Cc1ccc(/C=N/c2nccs2)cc1)c1ccccc1 [wact-376] + CNC(=O)O/N=C/C(C)(C)SC [aldicarb] reads inactive: 0
aldicarb interaction hit call, Fc1ccc(-c2ccc(CNC3CC3)o2)cc1Cl [wact-182] + CNC(=O)O/N=C/C(C)(C)SC [aldicarb] reads inactive: 0

(further entries)

Row | SMILES | aldicarb interaction hit call
21 | CCCCOC(=O)Nc1ccc([N+](=O)[O-])cc1 [wact-419] + CNC(=O)O/N=C/C(C)(C)SC [aldicarb] | inactive: 0
22 | CCC(NC(=O)c1ccc2oc(Cc3ccc(Cl)cc3)nc2c1)c1ccncc1 (stereo not given) [wact-322] + CNC(=O)O/N=C/C(C)(C)SC [aldicarb] | inactive: 0
23 | CCOCC(=O)Nc1ccc(-c2nc3ccc(C)cc3s2)cc1 [wact-522] + CNC(=O)O/N=C/C(C)(C)SC [aldicarb] | inactive: 0
24 | CCOc1ccc(C(=O)Nc2ccc(Cc3ccncc3)cc2)cc1 [wact-366] + CNC(=O)O/N=C/C(C)(C)SC [aldicarb] | inactive: 0
25 | S=C(Nc1ccccc1)Nc1ccccc1-c1ccccc1NC(=S)Nc1ccccc1 [wact-470] + CNC(=O)O/N=C/C(C)(C)SC [aldicarb] | inactive: 0
26 | c1ccc(-c2noc(-c3ccccc3)n2)cc1 [wact-589] + CNC(=O)O/N=C/C(C)(C)SC [aldicarb] | inactive: 0
27 | Cc1cc(SCc2ccc(Cl)cc2)ncn1 [wact-577] + CNC(=O)O/N=C/C(C)(C)SC [aldicarb] | inactive: 0
28 | CN(CC1CCN(CCc2ccc(F)cc2)CC1)C(=O)c1cc(-c2ccccc2)on1 [wact-247] + CNC(=O)O/N=C/C(C)(C)SC [aldicarb] | inactive: 0
29 | Cc1ccc(-c2cnc3ccccc3n2)cc1 [wact-181] + CNC(=O)O/N=C/C(C)(C)SC [aldicarb] | inactive: 0
30 | COc1ccc(C(=O)Nc2ccc(F)cc2F)cc1 [wact-591] + CNC(=O)O/N=C/C(C)(C)SC [aldicarb] | inactive: 0
31 | CC(NC(=O)c1csc2nc(-c3ccc(C(F)(F)F)cc3)cn12)c1ccncn1 (stereo not given) [wact-339] + CNC(=O)O/N=C/C(C)(C)SC [aldicarb] | inactive: 0
32 | COc1cc(NC(=O)COc2cc(C)ccc2C)c(C(=O)O)cc1OC [wact-478] + CNC(=O)O/N=C/C(C)(C)SC [aldicarb] | inactive: 0
33 | O=C(NCCc1cscn1)c1csc2nc(-c3cccc(Cl)c3)cn12 [wact-256] + CNC(=O)O/N=C/C(C)(C)SC [aldicarb] | inactive: 0
34 | CN(CC1CCN(CCc2ccc(Cl)cc2)CC1)C(=O)c1ccc(C(F)(F)F)cc1 [wact-304] + CNC(=O)O/N=C/C(C)(C)SC [aldicarb] | inactive: 0
35 | FC(F)(F)c1cc(-c2ccc(Br)cc2)[nH]n1 [wact-500] + CNC(=O)O/N=C/C(C)(C)SC [aldicarb] | inactive: 0
36 | Cc1c(Cl)ccc(OCCCCN2CCNCC2)c1C.Cl [wact-78] + CNC(=O)O/N=C/C(C)(C)SC [aldicarb] | inactive: 0
37 | CCn1cc(CN2CCCC(C(=O)c3ccc(-c4ccccc4)cc3)C2)cn1 (stereo not given) [wact-314] + CNC(=O)O/N=C/C(C)(C)SC [aldicarb] | inactive: 0
38 | OCn1c2ccccc2c2cc(Cl)ccc21 [wact-35] + CNC(=O)O/N=C/C(C)(C)SC [aldicarb] | inactive: 0
39 | COc1cc(/C=N/c2ccc(-c3nc4ccc(C)cc4s3)cc2)ccc1OC(C)=O [wact-383] + CNC(=O)O/N=C/C(C)(C)SC [aldicarb] | inactive: 0
40 | COC(=O)C1=C(C)NC2=C(C(=O)CC(c3ccc(F)cc3)C2)C1c1coc2ccc(Cl)cc2c1=O (stereo not given) [wact-527] + CNC(=O)O/N=C/C(C)(C)SC [aldicarb] | inactive: 0
